Article PMC6232482

What was measured:
Test in all cases: co-IP
[1] = target: T1, eGFP-IRF2 (UniProt P14316)
T1 sequence: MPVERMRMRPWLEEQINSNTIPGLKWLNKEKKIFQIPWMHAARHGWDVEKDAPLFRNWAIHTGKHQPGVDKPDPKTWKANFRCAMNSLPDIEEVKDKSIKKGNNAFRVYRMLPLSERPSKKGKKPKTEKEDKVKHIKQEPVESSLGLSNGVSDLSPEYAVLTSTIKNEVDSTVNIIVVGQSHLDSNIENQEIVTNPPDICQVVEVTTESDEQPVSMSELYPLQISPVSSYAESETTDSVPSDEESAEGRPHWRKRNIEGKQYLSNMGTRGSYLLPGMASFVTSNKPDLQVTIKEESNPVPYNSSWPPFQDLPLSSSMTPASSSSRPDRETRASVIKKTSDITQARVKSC

[2] = target: T2, eGFP-IRF3(S385A/S386A-R285A/H288A/H290A) (UniProt Q14653)
T2 sequence: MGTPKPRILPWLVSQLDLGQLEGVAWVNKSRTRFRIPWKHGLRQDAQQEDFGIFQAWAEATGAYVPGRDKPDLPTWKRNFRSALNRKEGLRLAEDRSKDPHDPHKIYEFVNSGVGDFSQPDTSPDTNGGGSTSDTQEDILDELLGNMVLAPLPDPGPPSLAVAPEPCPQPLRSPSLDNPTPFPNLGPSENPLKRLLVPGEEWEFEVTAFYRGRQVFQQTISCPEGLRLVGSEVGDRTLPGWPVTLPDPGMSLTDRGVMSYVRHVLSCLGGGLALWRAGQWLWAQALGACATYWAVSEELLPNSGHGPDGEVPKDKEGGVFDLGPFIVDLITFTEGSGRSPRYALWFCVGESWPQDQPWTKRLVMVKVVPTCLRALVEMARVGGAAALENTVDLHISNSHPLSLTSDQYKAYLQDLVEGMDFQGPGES

[3] = target: T3, eGFP-IRF7 (UniProt Q92985)
T3 sequence: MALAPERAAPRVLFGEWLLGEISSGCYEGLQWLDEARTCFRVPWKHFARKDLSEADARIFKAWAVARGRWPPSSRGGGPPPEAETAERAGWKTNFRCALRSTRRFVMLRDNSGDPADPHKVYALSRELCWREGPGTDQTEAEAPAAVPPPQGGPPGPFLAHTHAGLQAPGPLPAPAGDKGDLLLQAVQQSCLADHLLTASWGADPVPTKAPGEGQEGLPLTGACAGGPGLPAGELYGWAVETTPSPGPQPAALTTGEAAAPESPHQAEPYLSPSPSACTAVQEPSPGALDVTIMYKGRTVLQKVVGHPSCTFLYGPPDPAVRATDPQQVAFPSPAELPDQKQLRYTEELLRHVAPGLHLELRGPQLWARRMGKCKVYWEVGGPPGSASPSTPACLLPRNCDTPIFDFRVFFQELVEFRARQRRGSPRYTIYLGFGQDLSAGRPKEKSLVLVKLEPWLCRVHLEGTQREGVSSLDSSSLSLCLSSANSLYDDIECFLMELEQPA

[4] = target: T4, eGFP-IRF3(190-427), C-terminal portion (UniProt Q14653)
T4 sequence: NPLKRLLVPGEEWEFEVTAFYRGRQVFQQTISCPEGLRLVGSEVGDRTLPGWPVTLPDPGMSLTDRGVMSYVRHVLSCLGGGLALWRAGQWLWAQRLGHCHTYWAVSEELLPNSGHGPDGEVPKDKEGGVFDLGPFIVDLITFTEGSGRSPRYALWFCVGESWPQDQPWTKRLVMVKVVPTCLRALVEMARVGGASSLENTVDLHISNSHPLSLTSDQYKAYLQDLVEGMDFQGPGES

[5] = target: T5, eGFP-IRF3(S385A/S386A-R211A/R213A) (UniProt Q14653)
T5 sequence: T2 sequence with R211A, R213A, A285R, A288H, A290H

[6] = target: T6, eGFP-IRF3(1-190), N-terminal portion (UniProt Q14653)
T6 sequence: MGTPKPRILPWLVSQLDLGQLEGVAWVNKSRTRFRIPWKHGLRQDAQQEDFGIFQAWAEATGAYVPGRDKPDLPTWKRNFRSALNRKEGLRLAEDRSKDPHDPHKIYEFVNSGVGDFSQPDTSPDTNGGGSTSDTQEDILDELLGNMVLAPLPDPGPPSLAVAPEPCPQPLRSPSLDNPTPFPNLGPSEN

[7] = target: T7, eGFP-IRF3(S385A/S386A), dimerization-deficient mutant (UniProt Q14653)
T7 sequence: T2 sequence with A285R, A288H, A290H

[8] = target: T8, eGFP-fused IRF3 DNA-binding domain (aa 1 to 113), in vitro translated (UniProt Q14653)
T8 sequence: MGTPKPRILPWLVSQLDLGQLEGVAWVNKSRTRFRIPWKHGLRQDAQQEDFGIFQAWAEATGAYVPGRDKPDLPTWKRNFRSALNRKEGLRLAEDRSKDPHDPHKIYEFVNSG

[9] = target: T9, eGFP-IRF9 (UniProt Q00978)
T9 sequence: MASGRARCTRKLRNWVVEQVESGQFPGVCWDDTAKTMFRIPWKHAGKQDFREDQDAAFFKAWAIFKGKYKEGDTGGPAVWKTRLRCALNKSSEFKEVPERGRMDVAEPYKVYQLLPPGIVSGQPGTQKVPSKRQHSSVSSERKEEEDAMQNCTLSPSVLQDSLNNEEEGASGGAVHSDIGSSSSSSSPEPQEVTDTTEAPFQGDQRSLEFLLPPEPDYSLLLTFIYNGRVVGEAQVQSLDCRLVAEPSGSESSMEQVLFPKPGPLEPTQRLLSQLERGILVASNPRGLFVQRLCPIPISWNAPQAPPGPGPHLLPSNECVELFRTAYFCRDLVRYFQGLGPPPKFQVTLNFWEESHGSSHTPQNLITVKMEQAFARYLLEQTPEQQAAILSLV

With “3×FLAG-tagged NSs of sandfly fever Sicilian virus (SFSV)” the binding [1] was “no binding”, the binding [2] was “binds” and the binding [3] was “no binding”. For the same substance, the binding [4] was “no binding”, the binding [5] was “binds” and the binding [6] was “binds”. The binding [7] was “binds”, the binding [8] was “binds” and the binding [9] was “no binding”.

Substitutions are numbered along the chain they refer to. No constants are given. Whether binding was seen depends on the method and setting. In cells and extracts the contact can be indirect. For part of these data: Binding can be weak; no strength is given. Tags and fused reporters may be left off the sequences shown.
